# Results taken from patent publication US20250312407A1, “PEPTIDE AND USE THEREOF” (AJINOMOTO CO., INC., priority 2019, published 2025).
# Some results were stated once for a whole list of compounds, not compound by compound.
# System: male KK-Ay mice
# Assay: Insulin tolerance test (ITT)
# Assay type: in vivo, mouse
# Conditions: 30 mg/kg oral, insulin 0.5 U/kg s.c. 1 hr later, profile and ΔAUC vs vehicle group
# Protocol: The administration medium (0.5% methylcellulose; vehicle) or compound 1 (30 mg/kg) was orally administered to male KK-Ay mice (7 to 12 weeks old) that had been fasted from 17 o'clock the day before, and insulin (0.5 U/kg) was subcutaneously administered 1 hr later. Blood was collected from the tail vein before administration, and 15, 30, 60, 120 and 180 min after administration, and the blood glucose level was measured. The blood glucose level was also measured for compounds 2 to 6 by a similar method. The results of the area under curve (ΔAUC) of the blood glucose level profile calculated with the 0-minute value as the standard are shown in FIG. 3(b).
sequence,measurement,value
LIVTQTMK (Designed peptide) [compound 3],"blood glucose level after insulin (insulin sensitivity improving effect), ITT",insulin sensitivity improving effect was similarly found
